Laboratory results published in US20260286287A1, “NOVEL BACTERIAL STRAIN USEFUL FOR TREATING CUTANEOUS INFLAMMATION” (PIERRE FABRE DERMO-COSMETIQUE, priority 2023, published 2026).

System: normal human epidermal keratinocytes (NHEK) stimulated by an inflammatory cytokine mix (IL-4+IL-13+IL-22+TNF-α)
Test: Gene expression (RT-qPCR) in cytokine-stimulated normal human epidermal keratinocytes, in vitro model of chronic atopic dermatitis
Assay type: cell-based
Conditions: cytokine mix 10 ng/ml + JAK inhibitor I 10 μM, Mean HK normalisation, 1440 min
Protocol: The effects of the bacterial extracts prepared in example 3 (i.e., L0, BL0, S0 and ES0) on gene expression were assessed with normal human epidermal keratinocytes (NHEK) which have been stimulated by an inflammatory cytokine mix (IL-4+IL-13+IL-22+TNF-α), a particularly useful model representative of the chronic phase of atopic dermatitis.
Keratinocytes were seeded in 24-well plates and grown for 24 hours in growth medium with culture conditions at 37° C. and 5% C02. The growth medium comprised Keratinocyte SFM (Serum Free Medium) supplemented with Epidermal Growth Factor (EGF) 0.25 ng/ml, Pituitary extract (PE) 25 μg/ml and Gentamycin 25 μg/ml. The medium was then removed and replaced by assay medium containing either no added extract or compound (negative control), one of the bacterial extracts of example 3 (L0, BL0, S0 or ES0), or the reference compound (JAK Inhibitor | at 10 μM). Cells were then pre-incubated for 24 hours. The assay medium comprised Keratinocyte SFM supplemented with Gentamycin 25 μg/ml.
After pre-incubation, the assay medium was renewed, the mix of cytokines (IL-4+IL-13+TNF-α +IL-22, each at 10 ng/ml) added and the cells then incubated for 24 hours. […]
RT-qPCR (real time quantitative PCR) was used to analyse the expression of markers in total RNA extracted from the cell monolayers of each experimental condition. […]

SMILES: CC(C)(C)c1nc2c3cc[nH]c(=O)c3c3cc(F)ccc3c2[nH]1 [JAK inhibitor I]
- GAPDH (housekeeping) gene expression: 99 % control
- RPS28 (housekeeping) gene expression: 102 % control
